Values from PubChem BioAssay AID652259 (Drosophila RNAi Screening Center, 2013)

Aim: 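Genome-wide hunt for genes that control Wingless pathway activity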 (primary screen)
Cell system: Drosophila clone 8 imaginal disc epithelial cells
Reagents: long dsRNA against Drosophila genes
Treatment: pathway stimulated by co-transfected Wingless expression plasmid
Measured: 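Firefly luciferase from a tcf-site Wingless reporter, measured alongside co-transfected Renilla luciferase that tracks transfection; pathway stimulated by a Wingless plasmid; the firefly-to-Renilla ratio is not deposited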
Direction: firefly reporter light: higher = more Wg reporter light, before normalisation; Renilla control light: higher = more transfected or surviving cells
Call rule: 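a knock-down is a candidate when at least two out of four statistical tests show it departing from its plate mean; one test alone signals a weak candidate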
Calls: active = candidate regulator (raises or lowers reporter); inactive = not a candidate
The deposit covers about 22,000 reagents; below is an unselected part of those that have a named target and a result. Over the whole deposit, 233 (1.1%) were called active. 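Light values are raw, unnormalised plate reads; the ratio scores behind the reporter calls were not deposited.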 The numbers tell different reagents against one gene apart. Names joined by + are all predicted targets of the reagent. Not given: the amount of reagent, the time to read-out, the dose of the treatment.

reporter change call, replicate 1	firefly reporter light, replicate 1	firefly reporter light, replicate 2	Renilla control light, replicate 1	Renilla control light, replicate 2	Call	predicted target	dsRNA no.
	5.40e5	5.53e5	2.98e5	2.03e5	inactive	Gr36b (GeneID 117487)	1
	18780		12005		inactive	CG43110 (GeneID 12798330)	1
	4819		2116		inactive	CG13223 (GeneID 36190)	1
	10098		3491		inactive	Dlish (GeneID 37014)	1
	12642		3767		inactive	sel (GeneID 36046)	1
	2154	6107	541	1818	inactive	CG1791 (GeneID 31927)	1
	14229		4358		inactive	lncRNA:CR42862 (GeneID 10178964)	1
	14150		7323		inactive	CG4661 (GeneID 32238)	1
	5312		2315		inactive	Atac3 (GeneID 38055)	1
	3936		1676		inactive	CG7848 (GeneID 36839)	1
	3552		2038		inactive	Rdl (GeneID 39054)	1
	5319		2323		inactive	Rdl (GeneID 39054)	2
	7451		2256		inactive	Trs20 (GeneID 39769)	1
	23536		7929		inactive	CG11131 (GeneID 40511)	1
	3.45e5	3.88e5	1.55e5	1.33e5	inactive	CG11131 (GeneID 40511)	2
	3435	5654	1260	2027	inactive	Prosbeta4R1 (GeneID 33449)	1
	12337		3136		inactive	Rab23 (GeneID 40701)	1
	6673		1610		inactive	Hsp110 (GeneID 39557)	1
	19552		12724		inactive	na (GeneID 45338)	1
	4884		1804		inactive	Zip71B (GeneID 39626)	1
	15977		4434		inactive	GluClalpha (GeneID 42350)	1
	9312		1906		inactive	CG14309 (GeneID 42212)	1
	17291		8796		inactive	Rab9D + Rab9Fa + Rab9E	1
	18569		5024		inactive	CG5793 + Obp93a	1
	2904	8803	748	2721	inactive	CG12895 (GeneID 36103)	1
	14665		1721		inactive	MTA1-like (GeneID 40693)	1
	3.64e5	3.21e5	1.54e5	1.56e5	inactive	MTA1-like (GeneID 40693)	2
	1793	6832	711	2803	inactive	G6P (GeneID 33476)	1
	11280	7.96e5	1652	3.61e5	inactive	CG8026 (GeneID 35941)	1
	2849	9634	752	3569	inactive	CG8026 (GeneID 35941)	2
	9260		1868		inactive	Hsc70-4 (GeneID 41840)	1
	5.22e5	4.96e5	2.14e5	93806	inactive	CG33458 (GeneID 2768846)	1
	12161	6.95e5	4167	3.62e5	inactive	mRpL50 (GeneID 38796)	1
	20442		9269		inactive	Gr5a (GeneID 44873)	1
	10032		3101		inactive	CG2915 (GeneID 35754)	1
	2928	4741	819	1884	inactive	azot (GeneID 35751)	1
	21136		8540		inactive	CG12698 (GeneID 32570)	1
	6288		2141		inactive	CG2017 (GeneID 40733)	1
	28450		14145		inactive	CG31681 (GeneID 318882)	1
	14635		2261		inactive	CG12320 (GeneID 42189)	1
	3066	9610	1085	4281	inactive	CG13138 (GeneID 34381)	1
	15529		14643		inactive	bai (GeneID 42996)	1
	16513		4074		inactive	CG17272 (GeneID 42465)	1
	2528		1207		inactive	CG31174 (GeneID 318616)	1
	6603		1060		inactive	CG6262 (GeneID 36833)	1
	6000	11725	1552	5283	inactive	CG1663 (GeneID 36012)	1
	7.24e5	7.37e5	3.03e5	2.74e5	inactive	CG1663 (GeneID 36012)	2
	5955	7429	1784	4788	inactive	mtgo (GeneID 34987)	1
	3377		2017		inactive	mtgo (GeneID 34987)	2
	5372		1465		inactive	mtgo (GeneID 34987)	3
	3.17e5	3.39e5	1.60e5	1.77e5	inactive	mtgo (GeneID 34987)	4
	2.66e5	4.07e5	2.09e5	1.98e5	inactive	mtgo (GeneID 34987)	5
	5040		3592		inactive	Ppm1 (GeneID 38071)	1
	13600		10838		inactive	mRpL14 (GeneID 31222)	1
Wg reporter activity raised	12259		1122		active	CG42540 (GeneID 38562)	1
	954	6022	717	2060	inactive	CG42540 (GeneID 38562)	2
Wg reporter activity raised	6605	1467	667	285	inactive	CG42540 (GeneID 38562)	3
	2885	8140	1815	4381	inactive	Doc1 (GeneID 39039)	1
	14421		3034		inactive	Magi (GeneID 37403)	1
	2025	8160	524	3722	inactive	Magi (GeneID 37403)	2
	14148		2345		inactive	CG14298 (GeneID 42259)	1
	4660		1493		inactive	CG31141 (GeneID 318605)	1
	5240		2269		inactive	Cpr72Ea (GeneID 39814)	1
	3746		1945		inactive	L (GeneID 36609)	1
	7202		2065		inactive	L (GeneID 36609)	2
	7712		2176		inactive	Ube4B (GeneID 34699)	1
	3093		2186		inactive	Afti (GeneID 41744)	1
	4128		699		inactive	dup (GeneID 47121)	1
	23792	6.44e5	12037	3.33e5	inactive	CG9577 (GeneID 33016)	1
	9542		2025		inactive	CG34234 + Dh44-R2	1
	2522	6757	912	2794	inactive	PGRP-SC1a (GeneID 35859)	1
	13729		6230		inactive	Chrac-16 (GeneID 32166)	1
	2112	4548	1042	826	inactive	CG14020 (GeneID 33771)	1
	2884	4448	1111	2038	inactive	Rnmt (GeneID 34877)	1
	2012	5445	881	2130	inactive	Ser12 (GeneID 33406)	1
	2848	6133	455	2448	inactive	CG6739 (GeneID 34037)	1
	3568	6083	1132	2570	inactive	CG5565 (GeneID 33323)	1
	27883		11240		inactive	Josd (GeneID 31560)	1
	3601	4871	1380	1465	inactive	mesh (GeneID 43688)	1
	8691		3626		inactive	mesh (GeneID 43688)	2
	5961		2436		inactive	mesh (GeneID 43688)	3
	8392		1657		inactive	CG8441 (GeneID 36792)	1
	24632		11110		inactive	lncRNA:CR43314 (GeneID 12798160)	1
	2.92e5	3.88e5	1.36e5	1.43e5	inactive	lncRNA:CR43314 (GeneID 12798160)	2
	5459		1312		inactive	Sr-CI (GeneID 33621)	1
	11286		2867		inactive	clu (GeneID 36793)	1
	34215		23505		inactive	CG13609 (GeneID 42883)	1
	4.35e5	4.22e5	2.03e5	1.66e5	inactive	CG13609 (GeneID 42883)	2
	22737		20873		inactive	Ir94g (GeneID 42768)	1
	4534		1952		inactive	kto (GeneID 44830)	1
	15480		9296		inactive	N (GeneID 31293)	1
	9437	8.15e5	3856	3.69e5	inactive	Cam (GeneID 36329)	1
	8748		3412		inactive	Cam (GeneID 36329)	2

13 entries already listed, arranged by “firefly reporter light, replicate 1”, lowest first:
reporter change call, replicate 1	firefly reporter light, replicate 1	firefly reporter light, replicate 2	Renilla control light, replicate 1	Renilla control light, replicate 2	Call	predicted target	dsRNA no.
	2528		1207		inactive	CG31174 (GeneID 318616)	1
	2928	4741	819	1884	inactive	azot (GeneID 35751)	1
	3066	9610	1085	4281	inactive	CG13138 (GeneID 34381)	1
	5955	7429	1784	4788	inactive	mtgo (GeneID 34987)	1
	6000	11725	1552	5283	inactive	CG1663 (GeneID 36012)	1
	6288		2141		inactive	CG2017 (GeneID 40733)	1
	6603		1060		inactive	CG6262 (GeneID 36833)	1
	14635		2261		inactive	CG12320 (GeneID 42189)	1
	15529		14643		inactive	bai (GeneID 42996)	1
	16513		4074		inactive	CG17272 (GeneID 42465)	1
	21136		8540		inactive	CG12698 (GeneID 32570)	1
	28450		14145		inactive	CG31681 (GeneID 318882)	1
	7.24e5	7.37e5	3.03e5	2.74e5	inactive	CG1663 (GeneID 36012)	2
